# Source: the supplement of paper PMC6411743
# ± gives the standard deviation of the averaged measurements. Only a part is listed here, and it is no random draw.
# Tests used:
# Assay in all cases: NP40-soluble protein abundance relative to vehicle (solubility fold change) (ratio); higher = more soluble protein in presence of ATP
# [1] = target: T1, RAB9A (UniProt P51151)
# T1 sequence (whole entry): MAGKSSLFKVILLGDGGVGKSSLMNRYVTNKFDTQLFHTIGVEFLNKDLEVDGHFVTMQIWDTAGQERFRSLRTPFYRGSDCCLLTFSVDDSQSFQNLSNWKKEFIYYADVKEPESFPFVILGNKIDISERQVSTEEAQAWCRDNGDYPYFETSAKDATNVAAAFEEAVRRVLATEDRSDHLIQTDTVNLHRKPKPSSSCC
# In short: (§1)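 Eight concentrations, 0.1 to 10 mM, were tested on Jurkat crude lysate for 10 min at room temperature and then 3 min at 37 °C, in three independent experiments. The lysate was solubilised with 0.8% NP40 and benzonase, ultracentrifuged, and the supernatant TMT-labelled for LC-MS/MS. Each value is the fold change against the detergent-processed vehicle in its own replicate, from vsn-normalised intensities.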
# [2] = target: T2, TMED10 (UniProt P49755)
# T2 sequence (whole entry): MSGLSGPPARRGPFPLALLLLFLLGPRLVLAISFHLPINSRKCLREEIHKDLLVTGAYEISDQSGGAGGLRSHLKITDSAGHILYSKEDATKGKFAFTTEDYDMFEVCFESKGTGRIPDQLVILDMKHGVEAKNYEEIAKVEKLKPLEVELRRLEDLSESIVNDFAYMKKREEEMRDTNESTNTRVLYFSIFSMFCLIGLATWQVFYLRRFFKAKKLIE
# In short: as §1
# [3] = target: T3, UQCRFS1 (UniProt P47985)
# T3 sequence (whole entry): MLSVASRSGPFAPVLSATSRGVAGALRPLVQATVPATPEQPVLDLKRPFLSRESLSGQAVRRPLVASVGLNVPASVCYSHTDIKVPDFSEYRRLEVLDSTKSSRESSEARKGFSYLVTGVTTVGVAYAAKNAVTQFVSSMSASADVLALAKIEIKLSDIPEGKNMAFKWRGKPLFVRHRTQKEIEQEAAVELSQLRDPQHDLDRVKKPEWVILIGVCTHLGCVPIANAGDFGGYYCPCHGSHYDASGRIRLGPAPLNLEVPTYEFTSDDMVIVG
# In short: as §1
# [4] = target: T4, UniProt P42224 and related entries
# T4 sequence (whole entry): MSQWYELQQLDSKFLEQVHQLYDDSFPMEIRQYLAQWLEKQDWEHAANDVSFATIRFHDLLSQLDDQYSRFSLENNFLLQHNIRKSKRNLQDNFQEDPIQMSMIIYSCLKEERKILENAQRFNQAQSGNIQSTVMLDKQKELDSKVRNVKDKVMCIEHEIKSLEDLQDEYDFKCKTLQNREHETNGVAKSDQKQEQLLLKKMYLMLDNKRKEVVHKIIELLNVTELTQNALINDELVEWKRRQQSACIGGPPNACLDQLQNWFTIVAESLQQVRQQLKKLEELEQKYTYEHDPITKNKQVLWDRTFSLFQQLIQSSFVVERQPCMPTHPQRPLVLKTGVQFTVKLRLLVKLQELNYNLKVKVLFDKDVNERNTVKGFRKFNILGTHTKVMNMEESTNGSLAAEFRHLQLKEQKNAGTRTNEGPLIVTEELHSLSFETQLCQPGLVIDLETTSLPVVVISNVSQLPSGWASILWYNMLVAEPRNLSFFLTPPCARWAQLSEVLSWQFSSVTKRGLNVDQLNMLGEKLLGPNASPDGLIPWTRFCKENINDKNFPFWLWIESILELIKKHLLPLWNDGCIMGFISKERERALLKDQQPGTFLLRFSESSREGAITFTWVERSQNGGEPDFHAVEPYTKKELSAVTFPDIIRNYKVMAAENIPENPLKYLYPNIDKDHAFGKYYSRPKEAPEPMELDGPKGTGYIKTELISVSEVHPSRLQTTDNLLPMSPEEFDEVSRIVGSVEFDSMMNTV
# In short: as §1
# [5] = target: T5, UniProt P48739 and related entries
# T5 sequence (whole entry): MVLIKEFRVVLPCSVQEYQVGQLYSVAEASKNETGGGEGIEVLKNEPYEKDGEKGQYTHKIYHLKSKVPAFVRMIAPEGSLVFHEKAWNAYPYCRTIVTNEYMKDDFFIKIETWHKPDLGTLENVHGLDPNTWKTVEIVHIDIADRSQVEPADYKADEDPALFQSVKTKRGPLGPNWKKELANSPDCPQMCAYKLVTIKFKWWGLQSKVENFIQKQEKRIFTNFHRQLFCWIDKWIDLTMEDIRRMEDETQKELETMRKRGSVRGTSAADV
# In short: as §1
# [6] = target: T6, UniProt P49116 and related entries
# T6 sequence (whole entry): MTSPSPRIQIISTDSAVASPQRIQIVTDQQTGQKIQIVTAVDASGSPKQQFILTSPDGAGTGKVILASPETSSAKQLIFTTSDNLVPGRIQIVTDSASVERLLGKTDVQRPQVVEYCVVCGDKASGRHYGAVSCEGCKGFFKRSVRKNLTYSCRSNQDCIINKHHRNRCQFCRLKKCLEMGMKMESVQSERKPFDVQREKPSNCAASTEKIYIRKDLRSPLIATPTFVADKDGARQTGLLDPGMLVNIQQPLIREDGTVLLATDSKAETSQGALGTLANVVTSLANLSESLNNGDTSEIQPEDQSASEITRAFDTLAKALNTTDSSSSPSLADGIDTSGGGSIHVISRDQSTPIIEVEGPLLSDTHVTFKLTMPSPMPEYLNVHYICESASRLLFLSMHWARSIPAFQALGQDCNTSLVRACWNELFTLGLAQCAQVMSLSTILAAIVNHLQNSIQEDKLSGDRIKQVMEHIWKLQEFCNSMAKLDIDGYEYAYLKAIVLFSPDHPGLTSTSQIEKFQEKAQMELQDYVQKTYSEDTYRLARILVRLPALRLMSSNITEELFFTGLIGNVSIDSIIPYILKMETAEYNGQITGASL
# In short: as §1
# [7] = target: T7, UniProt P51178 and related entries
# T7 sequence (whole entry): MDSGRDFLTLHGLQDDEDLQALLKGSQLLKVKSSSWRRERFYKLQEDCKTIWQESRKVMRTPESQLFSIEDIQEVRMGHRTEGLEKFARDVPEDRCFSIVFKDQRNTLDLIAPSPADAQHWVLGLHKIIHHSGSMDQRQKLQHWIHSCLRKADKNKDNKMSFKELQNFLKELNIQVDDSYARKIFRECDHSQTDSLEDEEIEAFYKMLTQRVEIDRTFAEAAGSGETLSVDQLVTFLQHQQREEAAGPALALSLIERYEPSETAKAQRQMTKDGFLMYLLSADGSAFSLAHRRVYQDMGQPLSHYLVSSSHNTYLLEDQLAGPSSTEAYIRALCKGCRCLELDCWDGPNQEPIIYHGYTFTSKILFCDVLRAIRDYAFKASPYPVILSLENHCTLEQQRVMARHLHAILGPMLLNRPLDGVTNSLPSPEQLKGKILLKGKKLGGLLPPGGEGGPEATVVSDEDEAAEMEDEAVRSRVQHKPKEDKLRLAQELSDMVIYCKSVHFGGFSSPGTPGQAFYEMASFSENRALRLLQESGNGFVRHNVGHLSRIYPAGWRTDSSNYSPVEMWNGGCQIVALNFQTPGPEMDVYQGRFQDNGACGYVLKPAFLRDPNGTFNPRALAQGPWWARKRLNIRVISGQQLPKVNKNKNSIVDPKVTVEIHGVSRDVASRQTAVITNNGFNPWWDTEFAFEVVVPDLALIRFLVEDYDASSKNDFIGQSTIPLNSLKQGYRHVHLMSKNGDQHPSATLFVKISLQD
# In short: as §1
# [8] = target: T8, WAS (UniProt P42768)
# T8 sequence (whole entry): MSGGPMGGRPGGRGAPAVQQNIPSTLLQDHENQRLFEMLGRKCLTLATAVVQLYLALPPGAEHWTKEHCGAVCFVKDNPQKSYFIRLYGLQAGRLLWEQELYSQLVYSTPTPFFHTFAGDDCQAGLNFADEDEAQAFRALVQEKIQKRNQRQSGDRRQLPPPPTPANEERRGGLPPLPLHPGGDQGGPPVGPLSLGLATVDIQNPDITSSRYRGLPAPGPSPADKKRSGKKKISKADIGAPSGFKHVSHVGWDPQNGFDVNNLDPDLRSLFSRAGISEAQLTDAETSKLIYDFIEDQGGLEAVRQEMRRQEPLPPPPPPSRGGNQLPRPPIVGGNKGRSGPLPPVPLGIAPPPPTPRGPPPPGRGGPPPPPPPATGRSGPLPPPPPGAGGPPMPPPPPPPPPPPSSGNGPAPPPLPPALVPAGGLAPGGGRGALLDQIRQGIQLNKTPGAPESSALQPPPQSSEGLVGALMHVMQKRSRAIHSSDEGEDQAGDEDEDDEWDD
# In short: as §1
smiles,measurement,setting,value
Nc1ncnc2c1ncn2[C@@H]1O[C@H](COP(=O)(O)OP(=O)(O)OP(=O)(O)O)[C@@H](O)[C@H]1O [adenosine triphosphate],NP40-soluble protein abundance,[1]; concentration: 6mM,1.02 ± 0.092
same,NP40-soluble protein abundance,[1]; concentration: 8mM,0.982 ± 0.051
same,NP40-soluble protein abundance,[1]; concentration: 10mM,0.9904 ± 0.0036
same,NP40-soluble protein abundance,[2]; concentration: 1mM,1.07 ± 0.063
same,NP40-soluble protein abundance,[2]; concentration: 2mM,1.02 ± 0.083
same,NP40-soluble protein abundance,[2]; concentration: 4mM,0.96 ± 0.084
same,NP40-soluble protein abundance,[2]; concentration: 6mM,1 ± 0.1
same,NP40-soluble protein abundance,[2]; concentration: 8mM,0.993 ± 0.13
same,NP40-soluble protein abundance,[2]; concentration: 10mM,0.971 ± 0.076
same,NP40-soluble protein abundance,[3]; concentration: 1mM,1.02 ± 0.071
same,NP40-soluble protein abundance,[3]; concentration: 2mM,1.02 ± 0.054
same,NP40-soluble protein abundance,[3]; concentration: 4mM,0.968 ± 0.044
same,NP40-soluble protein abundance,[3]; concentration: 6mM,0.975 ± 0.11
same,NP40-soluble protein abundance,[3]; concentration: 8mM,0.974 ± 0.054
same,NP40-soluble protein abundance,[3]; concentration: 10mM,0.971 ± 0.057
same,NP40-soluble protein abundance,[4]; concentration: 1mM,1 ± 0.041
same,NP40-soluble protein abundance,[4]; concentration: 2mM,1 ± 0.025
same,NP40-soluble protein abundance,[4]; concentration: 4mM,0.979 ± 0.03
same,NP40-soluble protein abundance,[4]; concentration: 6mM,0.978 ± 0.069
same,NP40-soluble protein abundance,[4]; concentration: 8mM,0.982 ± 0.044
same,NP40-soluble protein abundance,[4]; concentration: 10mM,0.96 ± 0.046
same,NP40-soluble protein abundance,[5]; concentration: 1mM,1.02 ± 0.058
same,NP40-soluble protein abundance,[5]; concentration: 2mM,0.992 ± 0.068
same,NP40-soluble protein abundance,[5]; concentration: 4mM,0.97 ± 0.069
same,NP40-soluble protein abundance,[5]; concentration: 6mM,0.964 ± 0.11
same,NP40-soluble protein abundance,[5]; concentration: 8mM,0.991 ± 0.068
same,NP40-soluble protein abundance,[5]; concentration: 10mM,0.97 ± 0.056
same,NP40-soluble protein abundance,[6]; concentration: 1mM,0.9959 ± 0.005
same,NP40-soluble protein abundance,[6]; concentration: 2mM,1.1 ± 0.1
same,NP40-soluble protein abundance,[6]; concentration: 4mM,1 ± 0.042
same,NP40-soluble protein abundance,[6]; concentration: 6mM,0.986 ± 0.018
same,NP40-soluble protein abundance,[6]; concentration: 8mM,0.981 ± 0.024
same,NP40-soluble protein abundance,[6]; concentration: 10mM,0.978 ± 0.018
same,NP40-soluble protein abundance,[7]; concentration: 1mM,1.01 ± 0.084
same,NP40-soluble protein abundance,[7]; concentration: 2mM,0.983 ± 0.044
same,NP40-soluble protein abundance,[7]; concentration: 4mM,1.08 ± 0.063
same,NP40-soluble protein abundance,[7]; concentration: 6mM,1 ± 0.029
same,NP40-soluble protein abundance,[7]; concentration: 8mM,0.983 ± 0.054
same,NP40-soluble protein abundance,[7]; concentration: 10mM,0.964 ± 0.015
same,NP40-soluble protein abundance,[8]; concentration: 1mM,0.925 ± 0.099
same,NP40-soluble protein abundance,[8]; concentration: 2mM,0.916 ± 0.048
same,NP40-soluble protein abundance,[8]; concentration: 4mM,0.911 ± 0.059
same,NP40-soluble protein abundance,[8]; concentration: 6mM,0.888 ± 0.048
same,NP40-soluble protein abundance,[8]; concentration: 8mM,0.876 ± 0.04
same,NP40-soluble protein abundance,[8]; concentration: 10mM,0.847 ± 0.055

# Part of the list above, as tab-separated lines:
smiles	measurement	setting	value
Nc1ncnc2c1ncn2[C@@H]1O[C@H](COP(=O)(O)OP(=O)(O)OP(=O)(O)O)[C@@H](O)[C@H]1O [adenosine triphosphate]	NP40-soluble protein abundance	[3]; concentration: 8mM	0.974 ± 0.054
same	NP40-soluble protein abundance	[3]; concentration: 10mM	0.971 ± 0.057
